We go through one substance from patent US5373089A (Northwestern University, priority 1993, dated 1994).

A short description of this series: general procedure: Boc solid-phase peptide synthesis; Boc-Gly-Resin (0.7 mmol of Boc-Gly/g) on 200-400 mesh chloromethylated resin (BioRad). The settings on record: whole synthesis, scale 0.5 mmole.

Turning to [(S)Pmp^1,D-Trp^2,Pen^6,Arg^6 ]OT, the isolated mass amounted to 240 mg. Further, under “from initial resin”, the isolated yield was determined as 42%.
